Measurements from patent US20070238731A1, “Dna-Pk Inhibitors” (KUDOS PHARMACEUTICALS LIMITED, priority 2004, published 2007).
Some entries share one result that the patent states for a list of compounds.

Tested on: HeLa cells
Test: Survival Enhancement Ratio (clonogenic survival assay after 2 Gray irradiation)
Format: cell-based
Settings: inhibitor 100 nM

Row | Structure (SMILES) | Survival Enhancement Ratio (SER)
1 | COCCN1CCN(CC(=O)Nc2ccc(-c3cccc4c(=O)cc(N5CCOCC5)oc34)c3sc4ccccc4c23)CC1 [Compound 24] | ≥ 2
2 | CCN1CCN(CC(=O)Nc2ccc(-c3cccc4c(=O)cc(N5CCOCC5)oc34)c3sc4ccccc4c23)CC1 [Compound 26] | ≥ 2
